For 2 molecules, IC50, EC50 and Ki results are on record in PMC2789240, “Comparative structural, kinetic and inhibitor studies of Trypanosoma brucei trypanothione reductase with T. cruzi^” (Molecular and Biochemical Parasitology, 2010).

Protein sequences, listed by entry. Tags and fused reporters are not part of them. Lines headed by an entry give the natural chain unless they say otherwise; changes in a name come on top.
UniProt P28593: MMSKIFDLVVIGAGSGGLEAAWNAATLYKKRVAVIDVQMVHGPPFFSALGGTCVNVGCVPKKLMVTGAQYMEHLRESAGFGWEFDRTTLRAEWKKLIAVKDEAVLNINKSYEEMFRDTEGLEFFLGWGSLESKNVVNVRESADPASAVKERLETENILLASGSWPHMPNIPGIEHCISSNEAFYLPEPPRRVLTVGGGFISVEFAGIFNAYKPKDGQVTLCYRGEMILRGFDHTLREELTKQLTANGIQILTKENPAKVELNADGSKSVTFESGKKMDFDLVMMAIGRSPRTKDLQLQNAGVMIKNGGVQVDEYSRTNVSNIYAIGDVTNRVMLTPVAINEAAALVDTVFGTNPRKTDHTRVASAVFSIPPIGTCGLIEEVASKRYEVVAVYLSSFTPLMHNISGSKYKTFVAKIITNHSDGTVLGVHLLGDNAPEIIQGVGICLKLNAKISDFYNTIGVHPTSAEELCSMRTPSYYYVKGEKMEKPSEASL
UniProt Q389T8, entry or part of it: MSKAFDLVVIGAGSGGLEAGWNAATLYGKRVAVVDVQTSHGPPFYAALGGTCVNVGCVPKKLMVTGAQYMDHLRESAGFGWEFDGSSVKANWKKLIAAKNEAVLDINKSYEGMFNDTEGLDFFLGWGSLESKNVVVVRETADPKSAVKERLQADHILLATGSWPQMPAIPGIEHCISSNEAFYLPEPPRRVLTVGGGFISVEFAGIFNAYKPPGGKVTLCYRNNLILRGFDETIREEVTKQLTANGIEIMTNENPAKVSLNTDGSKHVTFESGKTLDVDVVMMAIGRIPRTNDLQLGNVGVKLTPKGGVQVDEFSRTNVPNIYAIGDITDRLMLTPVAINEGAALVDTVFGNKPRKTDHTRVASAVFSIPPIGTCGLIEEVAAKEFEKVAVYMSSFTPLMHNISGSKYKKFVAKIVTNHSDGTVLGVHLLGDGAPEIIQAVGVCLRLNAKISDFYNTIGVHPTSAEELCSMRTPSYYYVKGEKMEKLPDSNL

Where two headings read alike, the source gives them in different places.

As a reminder, the IC50 is the concentration that gives 50% inhibition. For orientation: EC50 means the concentration that produces a half-maximal response. Broadly, the Ki is a measure of affinity in units of concentration, obtained from inhibition or displacement.

The target of experiment [1] is T1, TcTryR (recombinant T. cruzi trypanothione reductase) (Trypanosoma cruzi, UniProt P28593).
T1 construct: made in house
The experiment can be described thus: 412 nm DTNB-coupled trypanothione reductase assay (IC50, Km). It is filed as biochemical. The settings on record: 412 nm assay, T(S)2 at S = Km (10.4 μM), weighted mean of three occasions. The procedure: Assay plates were prepared using a Precision2000 liquid handler (Bio-Tek) with a final DMSO concentration of 1% in all wells. Plates contained a 10-point serial dilution (2-fold or 3-fold dilutions) across columns 2–11 with a top concentration of 100 μM or 200 μM. […] Column 1 contained full signal controls (no inhibitor) and column 12 contained background controls (no enzyme). […] Z′ figures were calculated from the full signal and background controls.

The subject of experiment [2] is Bloodstream form T. b. brucei cells (strain 427, 'single marker'). The settings on record: ref Richardson et al. [33]; cited from earlier work.
For experiment [3], the target named is TbTryR (recombinant T. b. brucei trypanothione reductase) (Trypanosoma brucei brucei, UniProt Q389T8). The experiment can be described thus: biochemical.
The subject of experiment [4] is Bloodstream form T. b. brucei cells (strain 427, 'single marker'). The experiment can be described thus: Growth inhibition of bloodstream form T. b. brucei (resazurin). It is filed as cell-based. The settings on record: Trypanosoma brucei, 72 h, 3 days incubation, weighted mean of three experiments. The procedure: Bloodstream form T. b. brucei cells (strain 427, ‘single marker’) were grown at 37 °C and 5% CO2 in a modified HMI9 [21] (HMI9-T where 0.2 mM 2-mercaptoethanol was replaced with 0.056 mM thioglycerol). Stock cultures were maintained in T75 vented cap culture flasks (Greiner, Kremsmuenster, Austria) and sub-cultured every 48–72 h by dilution into fresh medium. For microtitre plate assays, cells were counted using a Casy cell counter TT (Schärfe systems) and diluted appropriately. Compounds were tested in 96-well test plates (Greiner). The final conditions were 50–0.07 μM test compound (9-point 3-fold serial dilutions), 0.5% DMSO, 10^3 ml^−1 cells in a total volume of 0.2 ml. Plates were incubated for 3 days, resazurin was added to a final concentration of 45 μM and plates incubated for a further 4 h. Fluorescence was measured at 528 nm excitation and 590 nm emission. EC50 values were determined in three separate experiments and the data reported as weighted means.
A general note: Resazurin is reduced to fluorescent resorufin, in cell work by metabolically active cells.

For `CN(C)CCCN1c2ccccc2CCc2ccc(Cl)cc21` [Clomipramine], the figures for the IC50 in experiment [1] and in experiment [3] were 3.41 ± 0.06 µM and 11.1 ± 0.42 µM, respectively. Moreover, the EC50 in experiment [2] was 5.04 µM. Moreover, the figures for the Ki in experiment [3] (Ki) and in experiment [3] (calculated Ki from IC50 determination) were 3.03 ± 0.28 µM and 5.5 µM, respectively.

`CSc1ccc2c(c1)N(CCC1CCCCN1C)c1ccccc1S2` (stereo not shown) [Thioridazine]: a half-maximal effect in experiment [4] (EC50) was put at 1.39 ± 0.03 µM. In addition, in experiment [3], the IC50 is 9.58 ± 0.38 µM.
